## Library compounds against nucleic acid targets

Source: the ROBIN nucleic acid binder screens (doi:10.1002/anie.202211358).

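Each compound is printed as two spots on a slide made to bind it covalently, so it has no test concentration; the read-out is fluorescence of the bound, labelled oligonucleotide. The data file lists only calls. An earlier report of the laboratory on the PreQ1, TPP and SAM-II riboswitches (doi:10.1038/s41467-019-09493-3) used 1 µM RNA for 2 h and required a mean Z-score above 3 (spot signal-to-noise against the whole library), a score well above that on a control array, and duplicate spots agreeing (coefficient of variation under 100); it then also set aside compounds that hit other targets, which this list keeps. The cut-offs behind this list may differ. These are primary screening calls, not affinities; a compound without a hit may have attached poorly or may still bind in solution.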
“hit” means called a hit, “no hit” means screened and not called a hit.
Compounds were drawn at random from those tested, without regard to their results.
A dash means that no call is listed here.

Targets (5′ to 3′):
PreQ1: PreQ1 riboswitch RNA pseudoknot, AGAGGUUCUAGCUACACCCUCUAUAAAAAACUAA. From B. subtilis. About 170 hits among about 24,000 compounds.
SAM-II: SAM-II riboswitch RNA pseudoknot, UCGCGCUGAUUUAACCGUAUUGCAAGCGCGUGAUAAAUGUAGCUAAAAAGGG. About 200 hits among about 21,000 compounds.
TPP: TPP riboswitch RNA three-way junction, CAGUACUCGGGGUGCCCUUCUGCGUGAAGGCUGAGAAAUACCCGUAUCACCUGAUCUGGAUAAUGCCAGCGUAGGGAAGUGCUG. About 160 hits among about 24,000 compounds.

compound,PreQ1,SAM-II,TPP
COC1C(O)C2CC1C1C(=O)N(c3ccccc3O)C(=O)C21 (stereo unspecified),no hit,no hit,no hit
C=CCOc1ccc(Br)cc1C1C(C(=O)OC)=C(N)OC2=C1C(=O)CCC2 (stereo unspecified),no hit,no hit,no hit
Cc1noc(CN2CCN(C(=O)c3cccn3C3CC3)CC(O)C2)n1 (stereo unspecified),no hit,no hit,no hit
COc1cc(N2CC(=O)C(c3nc(C)cs3)=C2N)cc(OC)c1OC,no hit,-,no hit
Cc1cc(C(=O)NCC2CNCCO2)cc(C)n1 (stereo unspecified),no hit,no hit,no hit
CC(C)Oc1ccc(CNCCC(c2ccccc2)c2ccco2)cc1 (stereo unspecified),no hit,no hit,no hit
Cc1ccc(CN(CCCO)C(=O)c2ccc(F)c(O)c2)s1,no hit,no hit,no hit
CC(Cn1ccnc1)NCc1cccc(-n2cccn2)c1 (stereo unspecified),no hit,no hit,no hit
CCc1ccccc1Nc1ncnc2c1nc1n2CCCCC1,no hit,-,no hit
CCc1nnc(NC(=O)c2sc3nc4c(cc3c2N)CCC4)s1,no hit,no hit,no hit
Cc1ccc(Nc2c(-c3ccc(Cl)cc3)nc3cnccn23)cc1,no hit,no hit,no hit
OC(c1cc(C(F)(F)F)nc2c(C(F)(F)F)cccc12)C1CCCCN1 (stereo unspecified),no hit,no hit,no hit
Cc1nc2ccccc2n1CC(O)COc1ccc(C(=O)O)cc1 (stereo unspecified),no hit,no hit,no hit
CC#C[C@]1(O)CC[C@H]2[C@@H]3CCC4=CC(=O)CCC4=C3[C@@H](c3ccc(N(C)C)cc3)C[C@@]21C,no hit,no hit,no hit
CCOc1ccc(C2C(C#N)=C(N)OC3=C2C(=O)CC(C)(C)C3)cc1OC (stereo unspecified),no hit,no hit,no hit
CSc1nc2c(c(Nc3ccc(N(C)C)cc3)n1)CCC2,no hit,-,no hit
CC(O)CNc1nc2c(c(=O)n(Cc3ccc(Cl)cc3)c(=O)n2C)n1C (stereo unspecified),no hit,no hit,no hit
Cc1c(F)ccc(OCC(=O)N2CCN[C@H]3CS(=O)(=O)C[C@H]32)c1Cl,no hit,no hit,no hit
COc1ccccc1-c1cc2nc(C)cc(NCc3ccccc3)n2n1,no hit,-,no hit
CCOc1ccn(-c2ccc(F)cc2)c(=O)c1C(=O)Nc1ccc(Oc2ccnc(N)c2Cl)c(F)c1,no hit,no hit,no hit
Cc1cc(C=c2sc3nc4ccccc4n3c2=O)c(C)n1-c1ccccc1,no hit,no hit,no hit
O=C(CO)N1CCN(c2nnnn2-c2ccccc2)CC(O)C1 (stereo unspecified),no hit,no hit,no hit
CC(=O)[C@H]1CC[C@H]2[C@@H]3CCC4=CC(=O)C=C[C@]4(C)[C@H]3C(=O)C[C@]12C,no hit,no hit,no hit
CC(C)SCC(=O)N1CC[C@@H](CNC(=O)N2CCOCC2)[C@H](O)C1,no hit,no hit,no hit
CC(C)(CO)Nc1nc(Cl)nc(N2CCOCC2)n1,no hit,no hit,no hit
O=C(c1cc(-c2ccccc2O)n[nH]1)N1C[C@H]2CCC[C@@]2(CO)C1,no hit,no hit,no hit
Cc1ccccc1NCC(=O)c1ccc(Br)cc1,no hit,no hit,no hit
Cc1sc(NC(=O)C(C)C)c(C(=O)N2C[C@H]3C[C@H](O)[C@@H](O)C[C@H]3C2)c1C,no hit,no hit,no hit
O=C(CO)N1CCC(c2[nH]nc(-c3ccc(Cl)cc3)c2-c2ccncn2)CC1,no hit,no hit,no hit
CCc1noc(N)c1-c1ccc(F)cc1,no hit,no hit,no hit
O=C(CCC(=O)N(CCO)Cc1ccccc1)NC1CCCC1,no hit,no hit,no hit
COc1ccc(CNCCC(Cc2ccccc2)c2ccco2)cc1 (stereo unspecified),no hit,no hit,no hit
CCOC(=O)C1=C(N)Oc2c(oc(CO)cc2=O)C1c1ccc(F)cc1 (stereo unspecified),no hit,no hit,no hit
Cc1ccc2nc(NCc3ccc(F)cc3)c3nncn3c2c1,no hit,no hit,no hit
O=C(Nc1ccc2ccccc2c1)c1ccc(Cl)cc1Cl,no hit,no hit,no hit
C=CCc1ccccc1OCC(=O)O,no hit,no hit,no hit
CCCc1nc2nc(C)cc(Nc3ccccc3Br)n2n1,no hit,no hit,no hit
CCOC(=O)N1CCC(NC(Cn2ccnc2)C(C)(C)C)CC1 (stereo unspecified),no hit,no hit,no hit
CC1CC(=O)c2cnc(NCCN3CCOCC3)nc2C1 (stereo unspecified),no hit,-,no hit
CC(C)(C)c1n[nH]c2c1C(c1ccccc1F)C(C#N)=C(N)O2 (stereo unspecified),no hit,no hit,no hit
Cc1ccsc1CCNC(C)C(=O)NC1CCCC1 (stereo unspecified),no hit,no hit,no hit
CC1=CC2=C(C=O)C(=O)[C@](C)(O)[C@@H](O)C2=CO1,no hit,no hit,no hit
CCOC(=O)c1ccc(Nc2c(-c3ccc(C(C)C)cc3)c(=O)c2=O)cc1,no hit,-,no hit
N[C@@H](Cc1ccc(O)c(O)c1)C(=O)O,no hit,no hit,no hit
Fc1ccccc1Nc1c2c(nc3ccccc13)CCC2,no hit,no hit,no hit

Repeated from the top, 6 entries:

| compound | PreQ1 | SAM-II | TPP |
|---|---|---|---|
| `COC1C(O)C2CC1C1C(=O)N(c3ccccc3O)C(=O)C21` (stereo unspecified) | no hit | no hit | no hit |
| `C=CCOc1ccc(Br)cc1C1C(C(=O)OC)=C(N)OC2=C1C(=O)CCC2` (stereo unspecified) | no hit | no hit | no hit |
| `Cc1noc(CN2CCN(C(=O)c3cccn3C3CC3)CC(O)C2)n1` (stereo unspecified) | no hit | no hit | no hit |
| `COc1cc(N2CC(=O)C(c3nc(C)cs3)=C2N)cc(OC)c1OC` | no hit | - | no hit |
| `Cc1cc(C(=O)NCC2CNCCO2)cc(C)n1` (stereo unspecified) | no hit | no hit | no hit |
| `CC(C)Oc1ccc(CNCCC(c2ccccc2)c2ccco2)cc1` (stereo unspecified) | no hit | no hit | no hit |